Test results as given in patent US20250203808A1, “REFRIGERANTS FOR AND METHODS OF COOLING ELECTRONICS” (HONEYWELL INTERNATIONAL INC., priority 2023, published 2025).

Assay: Global Warming Potential (GWP)

SMILES | GWP (Table 1) | GWP (Table E1)
F/C=C/C(F)(C(F)(F)F)C(F)(F)F [HFO-1438ezy(E), (E)-1,3,4,4,4-pentafluoro-(3-trifluoromethyl)-but-1-ene] | <10 | <10
F/C=C\C(F)(C(F)(F)F)C(F)(F)F [HFO-1438ezy(Z), (Z)-1,3,4,4,4-pentafluoro-(3-trifluoromethyl)-but-1-ene] | <10 | <10
